Data as given in PubChem BioAssay AID1224828 (NIAID, 2016)

Aim: 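Find genes required for NF-kappaB p65 moving into the nucleus after LPS in mouse macrophages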 (primary screen)
System: mouse RAW264.7 G9 macrophage reporter cells (GFP-p65, Tnf promoter-mCherry)
Reagent: siRNA pool against mouse genes, 100 nM
Duration: 2 days siRNA transfection, then 40 min LPS before fixation
Treatment: LPS (Salmonella minnesota R595) at 10 ng/ml
Read-out: 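Imaged p65 nuclear translocation ratio, normalised to the plate median, converted to robust z-scores and averaged across two replicates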
Reading the numbers: p65 translocation robust z-score: higher = more nuclear NF-kappaB p65 after LPS than the plate median; nuclear/cytoplasmic p65 ratio: higher = more nuclear NF-kappaB p65
Rule for the call: 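Called active when z exceeds 3.3 or falls under -1.56 (median of Tlr4 controls), giving activity score of at least 50; no calls for control wells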
Calls: active = hit (p65 shift raised or lowered); inactive = no clear change
This is one part, drawn at random, of about 17,000 deposited reagents. In the full data, 762 (4.5%) were called active. 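Active calls include both raised and lowered p65 entry, mostly lowered; wells with fewer than 50 cells lack a z-score.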 Raw values vary from plate to plate and are shown uncorrected.

gene symbol	p65 translocation robust z-score	nuclear/cytoplasmic p65 ratio, rep 1	nuclear/cytoplasmic p65 ratio, rep 2	low cell count flag	outcome
Nav2	0.24	1.39	1.3	enough cells to score	inactive
Gpx6	2.11	2	1.81	enough cells to score	inactive
Dusp12	0.08	1.47	1.41	enough cells to score	inactive
Brms1l	1.4	1.61	1.73	enough cells to score	inactive
Frmd6		1.03	1.24	fewer than 50 cells per well; well left out of scoring	inactive
Pramel13	-0.45	1.5	1.59	enough cells to score	inactive
Tbxas1	1.28	1.53	1.7	enough cells to score	inactive
Zw10	0.6	1.6	1.69	enough cells to score	inactive
Ppp1r37	0.28	1.75	1.74	enough cells to score	inactive
Sec23b	1.58	1.65	1.4	enough cells to score	inactive
Or2y15	-0.93	1.5	1.27	enough cells to score	inactive
Hnrnpc	0.66	1.75	1.63	enough cells to score	inactive
G6pc3	0.6	1.47	1.49	enough cells to score	inactive
Ssbp3	-0.17	1.31	1.21	enough cells to score	inactive
Rorc	-0.34	1.5	1.44	enough cells to score	inactive

A stretch of the results above, as a working copy:
gene symbol	p65 translocation robust z-score	nuclear/cytoplasmic p65 ratio, rep 1	nuclear/cytoplasmic p65 ratio, rep 2	low cell count flag	outcome
Dusp12	0.08	1.47	1.41	enough cells to score	inactive
Brms1l	1.4	1.61	1.73	enough cells to score	inactive
Frmd6		1.03	1.24	fewer than 50 cells per well; well left out of scoring	inactive
Pramel13	-0.45	1.5	1.59	enough cells to score	inactive

Next entries follow:
gene symbol	p65 translocation robust z-score	nuclear/cytoplasmic p65 ratio, rep 1	nuclear/cytoplasmic p65 ratio, rep 2	low cell count flag	outcome
Rngtt	-0.51	1.35	1.16	enough cells to score	inactive
5830402J09	1.63	1.51	1.74	enough cells to score	inactive
Taf1c	0.34	1.62	1.52	enough cells to score	inactive
Snrpd3		1.17	1.48	fewer than 50 cells per well; well left out of scoring	inactive
Spmip4		1.36	1.28	fewer than 50 cells per well; well left out of scoring	inactive
Spire2	-0.53	1.32	1.2	enough cells to score	inactive
Yars2		1.48	1.22	fewer than 50 cells per well; well left out of scoring	inactive
Noc3l	0.08	1.5	1.82	enough cells to score	inactive
Or7e169	0.73	1.56	1.75	enough cells to score	inactive
